Among the data in US20160264593A1 (priority 2013, published 2016) are 100 brain concentration and 100 liver concentration values, retold here.

For the series the following is noted: female, Sprague-Dawley (SD), rat, in vivo, iv. The procedure:
100 was administrated via iv route at 0.5, 1.0 and 1.5 mg/kg into SD rats. The blood, liver and brain tissue samples were collected at predetermined times from rats.
Twelve (12) female SD rats per group were dosed by iv with 100. The rats were fasted overnight prior to dosing, with free access to water. Foods were withheld for 2 hours post-dose. Blood, liver and brain tissue samples in two animals each group were collected at each time point, within 10% of the scheduled time for each time point. Two extra animals were used for analytic method development. Blood (>0.3 mL) were collected via aorta abdominalis in anaesthetic animalsinto tubes containing heparin at 15 min, 1, 2, 6, 10 and 24 hours after iv administration. Liver and brain tissues were collected immediately after animal death. The liver and brain tissues were excised and rinsed with cold saline to avoid blood residual. Upon collection, each sample was placed on ice and the blood samples were subsequently centrifuged (4° C., 11000 rpm, 5 min) to separate plasma. The obtained plasma, liver and brain tissue samples were stored at −70° C. until LC-MS/MS analysis.
AUC0-∞ (AUC/NF) is the area under the plasma concentration-time curve with last concentration extrapolated based on the elimination rate constant.

This continues a long series; more values of the same kind are listed elsewhere.

`CN1CCN(C(=O)C2C3CCC(O3)C2C(=O)O)CC1` (centres unmarked) [Compound 100, 3-(4-methylpiperazine-1-carbonyl)-7-oxa-bicyclo[2,2,1]-heptane-2-carboxylic acid]: where the note is “0.5 mg/kg, 0.25 h”, the 100 brain concentration was 19.5 ng/g. Besides, the 100 liver concentration (1.5 mg/kg, 6 h) is given as 471 ng/g.
